Legend:
[1] = Bubble cell test, LPR corrosion rate, CO2 only tests (no biocide added); details: for corrosion protection against generalized corrosion produced by CO2 compared to untreated controls: CO2, no biocide; for Corrosion rate in MPY, Biocide + 2 hrs / Corrosion rate in MPY, Biocide + 8 hrs / Corrosion rate in MPY, Biocide + 17 hrs / Corrosion rate in MPY, CI: CO2 only; for Corrosion rate in MPY, Biocide + 2 hrs / Corrosion rate in MPY, Biocide + 8 hrs / Corrosion rate in MPY, Biocide + 17 hrs: no biocide added, 120 ppm corrosion inhibitor; for Corrosion rate in MPY, Biocide + 2 hrs: + 2 hrs time point; for Corrosion rate in MPY, Biocide + 8 hrs: + 8 hrs time point; for Corrosion rate in MPY, Biocide + 17 hrs: + 17 hrs time point; for Corrosion rate in MPY, CI: no biocide, after 120 ppm corrosion inhibitor
[2] = Bubble cell test, corrosion rate by Linear Polarization Resistance (LPR) in produced water brine treated with corrosion inhibitor and biocide; details: for Corrosion rate in MPY, Biocide + 2 hrs: 2 hrs after biocide addition; for Corrosion rate in MPY, Biocide + 8 hrs: 8 hrs after biocide addition; for Corrosion rate in MPY, Biocide + 17 hrs: 17 hrs after biocide addition; for Corrosion rate in MPY, Biocide: at biocide addition; for Corrosion rate in MPY, CI: after 120 ppm corrosion inhibitor, before biocide addition
[3] = 120 ppm corrosion inhibitor + 100 ppm Biocide 1
[4] = 120 ppm corrosion inhibitor + 100 ppm Biocide 2
[5] = 120 ppm corrosion inhibitor + 100 ppm Biocide 3
[6] = 120 ppm corrosion inhibitor + 100 ppm Biocide 4

Compound | Corrosion rate in MPY, Biocide + 2 hrs [1] | Corrosion rate in MPY, Biocide + 8 hrs [1] | Corrosion rate in MPY, Biocide + 17 hrs [1] | Corrosion rate in MPY, CI [1] | Corrosion rate in MPY, Biocide + 2 hrs [2, 3] | Corrosion rate in MPY, Biocide + 8 hrs [2, 3] | Corrosion rate in MPY, Biocide + 17 hrs [2, 3] | Corrosion rate in MPY, Biocide [2, 3] | Corrosion rate in MPY, Biocide + 2 hrs [2, 4] | Corrosion rate in MPY, Biocide + 8 hrs [2, 4] | Corrosion rate in MPY, Biocide + 17 hrs [2, 4] | Corrosion rate in MPY, Biocide [2, 4] | Corrosion rate in MPY, Biocide + 2 hrs [2, 5] | Corrosion rate in MPY, Biocide + 8 hrs [2, 5] | Corrosion rate in MPY, Biocide + 17 hrs [2, 5] | Corrosion rate in MPY, Biocide [2, 5] | Corrosion rate in MPY, Biocide + 2 hrs [2, 6] | Corrosion rate in MPY, Biocide + 8 hrs [2, 6] | Corrosion rate in MPY, Biocide + 17 hrs [2, 6] | Corrosion rate in MPY, Biocide [2, 6] | other results
Cocoamphodiproprionate sodium salt | 23.7300 MPY | 6.9350 MPY | 5.9230 MPY | 98.5400 MPY | 15.8 MPY | 1.415 MPY | 0.81 MPY | 48.9 MPY | 1.436 MPY | 0.6276 MPY | 0.4382 MPY | 3.966 MPY | 3.2560 MPY | 7.3900 MPY | 19.2800 MPY | 5.9450 MPY | 3.6720 MPY | 3.2270 MPY | 2.8500 MPY | 3.9920 MPY | corrosion protection against generalized corrosion produced by CO2 compared to untreated controls [1]: significantly reduced; Corrosion rate in MPY, CI ([2]; Biocide 1 test): 4.888 MPY; Corrosion rate in MPY, CI ([2]; Biocide 2 test): 0.5222 MPY; Corrosion rate in MPY, CI ([2]; Biocide 3 test): 6.9830 MPY; Corrosion rate in MPY, CI ([2]; Biocide 4 test): 4.4020 MPY; corrosion rate within the acceptable range of corrosion protection ([2]; biocide 2 treated carbon steel coupons, 120 ppm corrosion inhibitor): < 4 MPY
Dodecenyl succinic anhydride | – | – | 135.9000 MPY | – | – | – | 3.864 MPY | – | – | – | 0.5356 MPY | – | – | – | 1.8120 MPY | 5.5460 MPY | – | – | 3.1680 MPY | – | corrosion protection against generalized corrosion produced by CO2 compared to untreated controls [1]: does not confer additional protection
OCCS [CONTROL 3, Mercaptoethanol, reference compound] | 4.0350 MPY | 3.0320 MPY | 2.7150 MPY | 9.1810 MPY | 27.7 MPY | 20.5 MPY | 18.1 MPY | 28.1 MPY | 22.43 MPY | 17.78 MPY | 13.44 MPY | 26.89 MPY | 3.57 MPY | 1.36 MPY | 1.25 MPY | 9.62 MPY | 10.20 MPY | 8.91 MPY | 7.39 MPY | 10.12 MPY | Corrosion rate in MPY, CI ([2]; Biocide 1 test): 6.1 MPY; Corrosion rate in MPY, CI ([2]; Biocide 2 test): 15.96 MPY; Corrosion rate in MPY, CI ([2]; Biocide 3 test): 10.74 MPY; Corrosion rate in MPY, CI ([2]; Biocide 4 test): 10.57 MPY
Benzyl, didethyl-dodecyl-ammonium chloride [CONTROL 1, reference compound] | 76.5700 MPY | 112.9000 MPY | 125.2000 MPY | 60.3400 MPY | 47.6 MPY | 22.2 MPY | 14.82 MPY | 100 MPY | 0.6369 MPY | 0.5407 MPY | 0.4188 MPY | 0.6607 MPY | 0.17 MPY | 0.16 MPY | 0.16 MPY | 0.25 MPY | 0.47 MPY | 0.38 MPY | 0.44 MPY | 0.60 MPY | Corrosion rate in MPY, CI ([2]; Biocide 1 test): 0.6718 MPY; Corrosion rate in MPY, CI ([2]; Biocide 2 test): 0.6933 MPY; Corrosion rate in MPY, CI ([2]; Biocide 3 test): 0.64 MPY; Corrosion rate in MPY, CI ([2]; Biocide 4 test): 0.64 MPY
2-hydroxylethyl-N-methylbutane-1-sulphonamide | 102.5000 MPY | 47.4900 MPY | 37.5800 MPY | 111.6000 MPY | 23.91 MPY | 5.312 MPY | 3.712 MPY | 122.9 MPY | 0.7841 MPY | 0.6327 MPY | 0.3224 MPY | 2.01 MPY | 3.4910 MPY | 5.1620 MPY | 8.8860 MPY | 2.7740 MPY | 2.6270 MPY | 2.2090 MPY | 2.0730 MPY | 2.8890 MPY | corrosion protection against generalized corrosion produced by CO2 compared to untreated controls [1]: capable of reducing the corrosion rates; Corrosion rate in MPY, CI ([2]; Biocide 1 test): 5.101 MPY; Corrosion rate in MPY, CI ([2]; Biocide 2 test): 0.6859 MPY; Corrosion rate in MPY, CI ([2]; Biocide 3 test): 3.8820 MPY; Corrosion rate in MPY, CI ([2]; Biocide 4 test): 3.1740 MPY

Reference: patent US11732143B2, “Identification and characterization of novel corrosion inhibitor molecules” (ECOLAB USA INC., priority 2015, dated 2023)
